Values quoted from earlier work as cited in US12708629B2, “Methods and compositions for reducing parathyroid levels” (EIRGEN PHARMA LTD., priority 2010, dated 2026).
Some entries share one result that the patent states for a list of compounds.

Molecular target: T1, VDR (Homo sapiens, UniProt P11473)
T1 sequence (P11473 1-427): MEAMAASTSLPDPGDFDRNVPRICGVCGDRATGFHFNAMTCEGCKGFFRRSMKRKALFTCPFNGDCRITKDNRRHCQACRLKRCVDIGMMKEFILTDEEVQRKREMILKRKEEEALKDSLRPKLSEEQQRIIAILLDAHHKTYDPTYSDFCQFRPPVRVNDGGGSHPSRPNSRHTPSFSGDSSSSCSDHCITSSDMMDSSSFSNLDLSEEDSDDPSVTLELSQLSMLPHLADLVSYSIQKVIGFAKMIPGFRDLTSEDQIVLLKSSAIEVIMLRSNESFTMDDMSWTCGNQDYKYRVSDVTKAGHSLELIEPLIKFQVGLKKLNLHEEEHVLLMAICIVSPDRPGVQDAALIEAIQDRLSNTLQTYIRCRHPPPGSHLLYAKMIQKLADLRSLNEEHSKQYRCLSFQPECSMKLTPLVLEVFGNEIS
Conditions: estimated; cited from earlier work

C=C1CC[C@H](O)C/C1=C/C=C1\CCC[C@]2(C)[C@@H]([C@H](C)CCCC(C)C)CC[C@@H]12 [Cholecalciferol]
affinities for the VDR, lower than those of the Vitamin D hormones: at least 100 fold
